Binding data for two substances are collected here from paper PMC8875030.

By UniProt entry, the sequences of proteins in these tests, tags left out.
UniProt P16370: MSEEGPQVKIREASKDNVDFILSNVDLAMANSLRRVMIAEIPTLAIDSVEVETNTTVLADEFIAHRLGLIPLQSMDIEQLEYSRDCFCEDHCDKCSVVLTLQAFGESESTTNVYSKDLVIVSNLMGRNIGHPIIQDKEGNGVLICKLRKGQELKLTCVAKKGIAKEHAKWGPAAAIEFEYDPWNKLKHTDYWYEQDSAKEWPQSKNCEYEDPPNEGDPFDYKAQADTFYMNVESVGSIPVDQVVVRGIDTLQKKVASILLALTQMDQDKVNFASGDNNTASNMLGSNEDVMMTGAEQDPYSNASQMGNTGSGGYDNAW
UniProt P20434: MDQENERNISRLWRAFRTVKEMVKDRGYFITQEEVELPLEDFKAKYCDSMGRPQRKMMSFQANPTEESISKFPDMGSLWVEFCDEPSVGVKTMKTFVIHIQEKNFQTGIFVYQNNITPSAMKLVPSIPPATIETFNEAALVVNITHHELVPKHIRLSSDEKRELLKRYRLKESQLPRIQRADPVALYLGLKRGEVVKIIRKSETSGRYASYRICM
UniProt P20435: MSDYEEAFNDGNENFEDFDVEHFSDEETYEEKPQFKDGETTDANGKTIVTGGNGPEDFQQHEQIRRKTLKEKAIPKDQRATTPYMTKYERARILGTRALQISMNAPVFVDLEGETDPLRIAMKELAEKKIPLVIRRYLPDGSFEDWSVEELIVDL

The target of this experiment is Rpb3 subunit of RNA pol II (S. cerevisiae) (UniProt P16370). Briefly: co-IP; anti-Rpb3 antibody (1Y26) on Dynabeads Sheep-anti-Mouse IgG, 2 mg whole-cell protein extract of wild-type and rtr1Δ strains (YPD, 30 °C; in Figure 6B SD medium, with RPB4/7 overexpression or empty vectors); lysis buffer 50 mM HEPES pH 7.5, 120 mM NaCl, 1 mM EDTA, 0.3% CHAPS; Western blot of ….

Results are given in words; binding and its absence hold for the method and conditions named. In cells and extracts the contact can be indirect. Some entries that bind do so weakly or less than the wild type.

“Rpb5 subunit of RNA pol II (from UniProt P20434 1-215)”: the binding result is “binds”.
With “Rpb6 subunit of RNA pol II (from UniProt P20435 1-155)”, the binding entry was “binds”.
